Source: doi:10.1101/2020.08.21.261982
Results are given in words; binding and its absence hold for the method and conditions named. Binding seen in cells or lysates may run through a third protein. Some results given as binding are weak or reduced against the parent protein; the word gives no strength.

Amino acid sequences for entries named in this document (tags omitted).
UniProt P17742: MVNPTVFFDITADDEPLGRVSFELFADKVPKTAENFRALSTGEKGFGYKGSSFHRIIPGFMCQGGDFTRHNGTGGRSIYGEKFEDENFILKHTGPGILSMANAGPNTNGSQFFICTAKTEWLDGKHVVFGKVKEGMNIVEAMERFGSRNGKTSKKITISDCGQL

T1: small acidic Hsp90-binding co-chaperone p23 (endogenous, N2a cells) (mouse (endogenous in N2a)) (UniProt Q9R0Q7)
T1 sequence: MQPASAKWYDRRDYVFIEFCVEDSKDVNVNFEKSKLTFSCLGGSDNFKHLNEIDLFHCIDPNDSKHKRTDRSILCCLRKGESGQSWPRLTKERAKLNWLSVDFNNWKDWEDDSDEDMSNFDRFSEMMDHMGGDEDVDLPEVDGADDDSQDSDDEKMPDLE

B1: human p23 (pRK5MCS-hp23), overexpressed in N2a cells (protein, UniProt Q15185 1-160)
chain: MQPASAKWYDRRDYVFIEFCVEDSKDVNVNFEKSKLTFSCLGGSDNFKHLNEIDLFHCIDPNDSKHKRTDRSILCCLRKGESGQSWPRLTKERAKLNWLSVDFNNWKDWEDDSDEDMSNFDRFSEMMNNMGGDEDVDLPEVDGADDDSQDSDDEKMPDLE

Key:
[1] = biological target: T1, small acidic Hsp90-binding co-chaperone p23 (endogenous, N2a cells) (mouse (endogenous in N2a)); test: co-IP
[2] = biological target: Cyclophilin A (endogenous, N2a cells) (mouse (endogenous in N2a)) (UniProt P17742); test: co-IP

| Molecule | binding [1] | binding [2] |
| --- | --- | --- |
| Cyclophilin A (endogenous, N2a cells) (from UniProt P17742 1-164) | binds | – |
| B1 | – | binds |
